In the supplement of paper PMC10849652:
This is one part of the list.

Sequences of proteins named here, by UniProt entry; tags and fusion partners are left off. A change or cut given only in a name is not applied to a line headed by its entry.
UniProt Q9Y282: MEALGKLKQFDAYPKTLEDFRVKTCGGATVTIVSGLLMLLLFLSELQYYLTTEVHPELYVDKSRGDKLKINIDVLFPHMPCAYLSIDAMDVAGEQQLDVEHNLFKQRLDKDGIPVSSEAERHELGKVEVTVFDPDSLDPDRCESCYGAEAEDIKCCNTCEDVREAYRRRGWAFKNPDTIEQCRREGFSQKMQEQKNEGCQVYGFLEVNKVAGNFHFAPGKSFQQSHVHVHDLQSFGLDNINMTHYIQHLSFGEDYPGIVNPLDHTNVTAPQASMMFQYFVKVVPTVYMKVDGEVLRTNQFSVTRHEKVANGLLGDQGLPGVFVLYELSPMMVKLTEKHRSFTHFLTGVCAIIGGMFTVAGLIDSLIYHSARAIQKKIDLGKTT
UniProt P54760: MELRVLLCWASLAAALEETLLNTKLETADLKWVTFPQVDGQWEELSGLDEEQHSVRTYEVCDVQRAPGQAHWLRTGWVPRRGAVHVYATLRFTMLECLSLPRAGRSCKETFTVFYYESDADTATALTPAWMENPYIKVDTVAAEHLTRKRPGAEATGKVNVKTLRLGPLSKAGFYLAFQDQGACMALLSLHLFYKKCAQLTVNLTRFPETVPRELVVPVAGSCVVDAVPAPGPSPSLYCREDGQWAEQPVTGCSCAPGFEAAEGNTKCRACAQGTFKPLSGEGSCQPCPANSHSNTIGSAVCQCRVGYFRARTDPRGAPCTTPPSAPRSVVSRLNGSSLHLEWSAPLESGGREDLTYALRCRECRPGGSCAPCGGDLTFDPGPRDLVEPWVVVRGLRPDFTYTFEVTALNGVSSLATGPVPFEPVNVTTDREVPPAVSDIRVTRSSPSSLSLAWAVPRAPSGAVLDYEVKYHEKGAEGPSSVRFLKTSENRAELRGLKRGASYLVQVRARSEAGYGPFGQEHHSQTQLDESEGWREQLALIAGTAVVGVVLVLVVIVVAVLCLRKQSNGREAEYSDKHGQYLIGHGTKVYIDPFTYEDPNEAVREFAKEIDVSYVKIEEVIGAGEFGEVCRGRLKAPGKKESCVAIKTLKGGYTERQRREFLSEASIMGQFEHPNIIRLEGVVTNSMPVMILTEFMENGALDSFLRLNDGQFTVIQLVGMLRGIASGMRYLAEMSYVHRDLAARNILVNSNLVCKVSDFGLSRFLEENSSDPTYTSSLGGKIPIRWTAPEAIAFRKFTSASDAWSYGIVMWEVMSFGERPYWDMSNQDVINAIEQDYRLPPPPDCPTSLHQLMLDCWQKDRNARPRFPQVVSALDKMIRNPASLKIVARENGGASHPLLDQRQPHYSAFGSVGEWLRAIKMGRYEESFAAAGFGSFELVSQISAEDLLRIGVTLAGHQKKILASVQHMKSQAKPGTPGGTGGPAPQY
UniProt Q7L775: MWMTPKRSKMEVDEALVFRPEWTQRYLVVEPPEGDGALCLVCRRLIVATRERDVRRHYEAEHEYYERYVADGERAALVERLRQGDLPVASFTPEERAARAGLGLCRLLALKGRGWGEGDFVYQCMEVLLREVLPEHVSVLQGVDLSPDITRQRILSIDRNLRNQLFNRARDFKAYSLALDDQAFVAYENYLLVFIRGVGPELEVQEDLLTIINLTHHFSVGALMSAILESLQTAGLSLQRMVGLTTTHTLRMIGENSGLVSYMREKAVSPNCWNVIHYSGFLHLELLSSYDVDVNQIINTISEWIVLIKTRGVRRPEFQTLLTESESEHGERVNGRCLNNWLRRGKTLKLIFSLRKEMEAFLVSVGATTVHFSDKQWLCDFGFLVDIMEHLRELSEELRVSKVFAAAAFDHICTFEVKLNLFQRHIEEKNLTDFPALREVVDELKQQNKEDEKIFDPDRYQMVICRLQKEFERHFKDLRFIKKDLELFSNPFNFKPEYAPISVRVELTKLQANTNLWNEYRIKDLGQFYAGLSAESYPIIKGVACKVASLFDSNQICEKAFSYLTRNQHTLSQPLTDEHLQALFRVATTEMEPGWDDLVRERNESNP
UniProt P06733, whole entry, looked up: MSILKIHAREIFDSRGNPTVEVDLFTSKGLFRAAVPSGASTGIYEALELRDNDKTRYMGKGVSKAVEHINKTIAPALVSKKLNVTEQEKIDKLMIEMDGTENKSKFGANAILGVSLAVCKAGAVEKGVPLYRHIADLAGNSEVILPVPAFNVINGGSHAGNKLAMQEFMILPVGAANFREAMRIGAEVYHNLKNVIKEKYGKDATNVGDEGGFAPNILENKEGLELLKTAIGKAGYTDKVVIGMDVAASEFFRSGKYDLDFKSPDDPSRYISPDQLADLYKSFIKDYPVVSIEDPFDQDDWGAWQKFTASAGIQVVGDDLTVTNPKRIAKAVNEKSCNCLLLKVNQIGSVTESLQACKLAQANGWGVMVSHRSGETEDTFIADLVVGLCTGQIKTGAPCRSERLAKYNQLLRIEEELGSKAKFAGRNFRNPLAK
UniProt Q96EB1: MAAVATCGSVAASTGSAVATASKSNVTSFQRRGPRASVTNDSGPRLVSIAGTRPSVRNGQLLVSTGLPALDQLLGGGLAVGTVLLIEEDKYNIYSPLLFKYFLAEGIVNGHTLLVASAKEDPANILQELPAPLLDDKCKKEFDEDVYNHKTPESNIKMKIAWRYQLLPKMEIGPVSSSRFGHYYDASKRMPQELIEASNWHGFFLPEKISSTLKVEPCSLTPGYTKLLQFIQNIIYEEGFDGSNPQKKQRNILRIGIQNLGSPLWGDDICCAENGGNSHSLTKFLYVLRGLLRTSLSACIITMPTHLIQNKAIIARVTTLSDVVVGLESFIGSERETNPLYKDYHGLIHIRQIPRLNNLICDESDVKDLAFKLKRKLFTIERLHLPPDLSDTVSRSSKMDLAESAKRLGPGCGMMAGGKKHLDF
UniProt P60228, whole entry, looked up: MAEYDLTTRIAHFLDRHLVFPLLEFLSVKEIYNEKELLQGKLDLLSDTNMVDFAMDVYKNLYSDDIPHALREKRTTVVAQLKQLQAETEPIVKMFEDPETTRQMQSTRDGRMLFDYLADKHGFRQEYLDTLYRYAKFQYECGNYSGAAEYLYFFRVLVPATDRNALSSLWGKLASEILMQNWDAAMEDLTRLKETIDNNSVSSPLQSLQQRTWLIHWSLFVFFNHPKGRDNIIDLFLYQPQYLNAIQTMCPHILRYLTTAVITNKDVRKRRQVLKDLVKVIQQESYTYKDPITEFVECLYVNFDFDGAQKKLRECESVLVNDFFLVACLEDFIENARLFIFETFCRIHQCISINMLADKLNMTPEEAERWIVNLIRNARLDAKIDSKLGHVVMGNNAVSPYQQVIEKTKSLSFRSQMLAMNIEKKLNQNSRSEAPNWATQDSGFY
UniProt P41091, whole entry, looked up: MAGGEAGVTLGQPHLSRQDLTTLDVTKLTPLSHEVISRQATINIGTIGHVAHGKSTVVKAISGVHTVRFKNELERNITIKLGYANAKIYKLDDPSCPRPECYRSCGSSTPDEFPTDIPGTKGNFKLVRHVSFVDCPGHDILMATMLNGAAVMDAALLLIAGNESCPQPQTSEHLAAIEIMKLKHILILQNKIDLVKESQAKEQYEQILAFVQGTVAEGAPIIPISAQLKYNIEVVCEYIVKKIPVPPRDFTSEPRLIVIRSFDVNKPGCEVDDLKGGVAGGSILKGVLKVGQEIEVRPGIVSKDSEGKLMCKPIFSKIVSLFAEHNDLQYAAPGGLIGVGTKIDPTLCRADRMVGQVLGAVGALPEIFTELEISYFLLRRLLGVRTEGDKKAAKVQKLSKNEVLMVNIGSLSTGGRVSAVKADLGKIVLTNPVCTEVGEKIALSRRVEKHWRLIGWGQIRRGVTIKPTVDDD
UniProt Q15717, whole entry, looked up: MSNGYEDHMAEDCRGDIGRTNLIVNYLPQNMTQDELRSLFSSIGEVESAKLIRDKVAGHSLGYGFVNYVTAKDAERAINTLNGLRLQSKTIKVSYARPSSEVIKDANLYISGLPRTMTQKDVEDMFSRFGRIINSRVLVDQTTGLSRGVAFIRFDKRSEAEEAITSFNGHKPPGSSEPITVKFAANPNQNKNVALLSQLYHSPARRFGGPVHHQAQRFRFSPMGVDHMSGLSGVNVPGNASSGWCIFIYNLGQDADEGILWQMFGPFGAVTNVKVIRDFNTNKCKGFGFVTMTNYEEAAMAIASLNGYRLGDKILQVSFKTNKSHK
UniProt Q9NRA8: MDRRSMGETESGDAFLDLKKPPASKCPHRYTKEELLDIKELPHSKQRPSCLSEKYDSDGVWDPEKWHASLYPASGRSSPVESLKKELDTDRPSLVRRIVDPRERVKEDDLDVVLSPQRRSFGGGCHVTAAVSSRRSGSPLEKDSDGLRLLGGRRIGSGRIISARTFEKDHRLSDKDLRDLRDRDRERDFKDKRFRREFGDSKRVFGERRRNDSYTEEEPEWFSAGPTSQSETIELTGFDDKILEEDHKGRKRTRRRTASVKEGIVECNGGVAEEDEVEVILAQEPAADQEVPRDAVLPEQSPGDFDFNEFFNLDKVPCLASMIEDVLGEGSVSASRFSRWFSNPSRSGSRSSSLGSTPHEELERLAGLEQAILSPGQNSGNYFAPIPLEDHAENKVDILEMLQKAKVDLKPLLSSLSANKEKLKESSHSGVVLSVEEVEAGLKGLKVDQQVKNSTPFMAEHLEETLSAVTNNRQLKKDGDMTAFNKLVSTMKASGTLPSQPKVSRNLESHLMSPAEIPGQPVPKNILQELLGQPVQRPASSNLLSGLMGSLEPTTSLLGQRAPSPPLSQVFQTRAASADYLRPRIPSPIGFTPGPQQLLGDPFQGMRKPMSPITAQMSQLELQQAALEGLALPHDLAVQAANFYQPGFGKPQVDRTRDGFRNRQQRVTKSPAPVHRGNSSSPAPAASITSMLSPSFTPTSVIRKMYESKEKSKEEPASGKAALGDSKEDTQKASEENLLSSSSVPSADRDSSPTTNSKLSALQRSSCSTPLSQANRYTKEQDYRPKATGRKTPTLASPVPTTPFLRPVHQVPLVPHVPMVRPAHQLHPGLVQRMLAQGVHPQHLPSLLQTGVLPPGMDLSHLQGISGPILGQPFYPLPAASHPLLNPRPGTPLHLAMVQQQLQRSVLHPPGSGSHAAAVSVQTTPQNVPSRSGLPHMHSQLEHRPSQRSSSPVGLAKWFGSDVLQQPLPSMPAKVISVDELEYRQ
UniProt Q7L5Y1: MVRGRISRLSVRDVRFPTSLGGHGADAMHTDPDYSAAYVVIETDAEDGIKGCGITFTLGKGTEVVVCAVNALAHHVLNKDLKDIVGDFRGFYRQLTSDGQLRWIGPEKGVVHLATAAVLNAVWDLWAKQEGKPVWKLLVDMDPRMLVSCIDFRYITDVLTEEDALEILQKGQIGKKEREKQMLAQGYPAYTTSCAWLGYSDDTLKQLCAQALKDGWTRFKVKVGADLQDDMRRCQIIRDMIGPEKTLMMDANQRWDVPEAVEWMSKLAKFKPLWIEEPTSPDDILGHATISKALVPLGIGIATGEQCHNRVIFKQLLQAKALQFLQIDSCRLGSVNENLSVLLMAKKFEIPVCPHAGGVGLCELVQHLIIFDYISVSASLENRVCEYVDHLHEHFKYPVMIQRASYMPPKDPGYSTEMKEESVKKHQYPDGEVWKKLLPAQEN
UniProt Q0PNE2: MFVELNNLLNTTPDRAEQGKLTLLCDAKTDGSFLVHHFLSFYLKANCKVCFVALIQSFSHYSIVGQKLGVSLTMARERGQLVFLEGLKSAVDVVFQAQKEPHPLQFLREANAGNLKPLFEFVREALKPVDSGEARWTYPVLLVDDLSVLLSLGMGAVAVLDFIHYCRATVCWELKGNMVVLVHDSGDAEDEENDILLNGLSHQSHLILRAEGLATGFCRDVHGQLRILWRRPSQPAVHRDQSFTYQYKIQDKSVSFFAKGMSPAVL
UniProt Q9NPA0: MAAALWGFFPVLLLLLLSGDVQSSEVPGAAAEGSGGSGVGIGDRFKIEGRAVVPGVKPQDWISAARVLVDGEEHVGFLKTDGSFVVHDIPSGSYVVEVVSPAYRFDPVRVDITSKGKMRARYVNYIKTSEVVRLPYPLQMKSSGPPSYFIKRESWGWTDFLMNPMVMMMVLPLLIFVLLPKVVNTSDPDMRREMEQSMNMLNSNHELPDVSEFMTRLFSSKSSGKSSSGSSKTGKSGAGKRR
UniProt P20042, whole entry, looked up: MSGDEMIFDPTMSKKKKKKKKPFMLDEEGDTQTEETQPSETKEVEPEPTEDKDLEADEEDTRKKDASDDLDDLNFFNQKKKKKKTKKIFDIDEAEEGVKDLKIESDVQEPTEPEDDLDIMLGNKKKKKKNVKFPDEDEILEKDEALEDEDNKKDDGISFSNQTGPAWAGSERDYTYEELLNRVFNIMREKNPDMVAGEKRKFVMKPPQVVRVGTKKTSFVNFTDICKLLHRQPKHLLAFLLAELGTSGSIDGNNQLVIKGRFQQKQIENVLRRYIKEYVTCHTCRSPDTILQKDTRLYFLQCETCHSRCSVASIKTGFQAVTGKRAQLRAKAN

Legend:
Assay in all cases: log2 fold change, soluble protein after heating vs DMSO (PISA); higher = thermal stabilisation; K562 lysate, 10 uM; active = over 0.2 and 3.5 SD of the protein, either way, in both replicates (recomputed)
[1] = compound: C#Cc1cccc(Nc2ncnc3cc(OCCOC)c(OCCOC)cc23)c1 [erlotinib]
How it was run: (§1)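 A 30 min treatment with 10 μM compound was applied to crude K562 extract at 1 mg/mL protein in PBS pH 7.4 with 1 mM MgCl2. Heating for 3 min spanned 48°C-58°C, after which aliquots were pooled, adjusted to 0.5% NP-40 at 4°C and spun at 21,000xg for 90 min. TMTpro 16plex LC-MS/MS of the supernatant, with channel sums equalised, gave values recorded as log-two fold change in thermal stability against solvent controls, from duplicates.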

[2] = compound: C/C(=N\NC(=O)C1=CC(=CC=C1)S(=O)(=O)N2CCOCC2)/C3=C(C=CC(=C3)Cl)O
How it was run: as §1

[3] = compound: C1=CC(=CC=C1C2=NC3=C(N2)C=C(C=C3)C(=O)N)OC4=CC=C(C=C4)Cl
How it was run: as §1

[4] = compound: C1=CC2=C(C=CC(=C2)/C=C\3/C(=O)NC(=NCC4=CC=CS4)S3)N=C1
How it was run: as §1

[5] = compound: C1=CC2=NC=CN=C2C=C1/C=C/3\C(=O)NC(=O)S3
How it was run: as §1

[6] = compound: C1=CC=C(C=C1)C2=NC(=C(N2)C3=CC=NC=C3)C4=CC(=C(C=C4)Cl)O
How it was run: as §1

[7] = compound: C1=CC=C2C(=C1)C3=NNC4=CC=CC(=C43)C2=O
How it was run: as §1

[8] = compound: C1CCN(C1)C(=O)NC2=CC=CC(=C2)NC3=NC=C(C(=N3)NCCC4=CN=CN4)Br
How it was run: as §1

[9] = compound: C1CN(CCC1(CC2=CC=C(C=C2)Cl)N)C3=NC=NC4=C3C=CN4
How it was run: as §1

[10] = compound: C1COCCN1CCN2C3=CC=CC=C3N=C2NC(=O)C4=CC(=CC=C4)[N+](=O)[O-] [IRAK-1-4 Inhibitor I]
How it was run: as §1

[11] = compound: C=CC(=O)N1CCC[C@@H](n2nc(-c3ccc(Oc4ccccc4)cc3)c3c(N)ncnc32)C1 [ibrutinib]
How it was run: as §1

[12] = compound: CC(=O)c1cnc2ccc(-c3cc(Cl)c(O)c(Cl)c3)nc2c1N[C@H]1CC[C@H](CN(C)C)CC1
How it was run: as §1

[13] = compound: CC(C)(C)Cn1c(N)nc2ccc(-c3[nH]c(C(C)(C)C)nc3-c3ccc(F)cc3)nc21 [ralimetinib]
How it was run: as §1

[14] = compound: CC(C)(O)CC(=O)NCCn1ccc2ncnc(Nc3ccc(Oc4cccc(C(F)(F)F)c4)c(Cl)c3)c21
How it was run: as §1

[15] = compound: CC(C)C1=C2N=C(C=C(N2N=C1)NCC3=CC=CC=C3)NCCCCCCN
How it was run: as §1

[16] = compound: CC1=C(C(CC(=O)N1)C2=CC=C(C=C2)C(F)(F)F)C(=O)NC3=C(C=C4C(=C3)C=NN4)F
How it was run: as §1

[17] = compound: CC1=C(C2=C(C=C1)C(=O)C3=CC=CC=C3N2CCCN)C
How it was run: as §1

[18] = compound: CC1=C(C=C(C=C1)NC(=O)C2=CC(=CC=C2)C(C)(C)C#N)NC3=CC4=C(C=C3)N=CN(C4=O)C
How it was run: as §1

[19] = compound: CC1=C(C=C(C=C1)NC(=O)C2=CC(=CC=C2)N(C)C)NC(=O)C3=CC=C(C=C3)O
How it was run: as §1

[20] = compound: CC1=CC=C(C=C1)SC2=C3C=C(SC3=CN=C2)C(=O)N
How it was run: as §1

Measured: log2 fold change

ERGIC3 isoform 3 (UniProt Q9Y282)
inactive: [1] -0.005 | [2] 0.046 | [3] -0.055 | [4] -0.026 | [5] 0.04 | [6] -0.012 | [7] -0.062 | [8] 0.1 | [9] 0.019 | [10] -0.028 | [11] -0.03 | [12] -0.01 | [13] -0.024 | [14] -0.074 | [15] 0.016 | [16] 0.05 | [17] 0.101 | [18] -0.026 | [19] 0.03 | [20] -0.013

ELOB (UniProt Q15370)
inactive: [1] -0.008 | [2] 0.019 | [3] -0.011 | [4] 0.021 | [5] -0.048 | [6] -0.023 | [7] -0.006 | [8] -0.007 | [9] 0.039 | [10] -0.03 | [11] 0 | [12] -0.029 | [13] -0.004 | [14] -0.053 | [15] 0.024 | [16] -0.084 | [17] 0.019 | [18] 0.006 | [19] 0.005 | [20] 0.001

EPHB4 (UniProt P54760)
inactive: [1] 0.06 | [2] 0.316 | [3] 0.107 | [4] 0.083 | [5] 0.039 | [6] -0.041 | [7] -0.165 | [8] -0.012 | [9] 0.094 | [10] 0.051 | [11] -0.05 | [12] 0.223 | [13] 0.072 | [14] -0.031 | [15] -0.02 | [16] 0.007 | [17] -0.06 | [18] 0.395 | [19] 0.104 | [20] -0.003

EPM2AIP1 (UniProt Q7L775)
inactive: [1] 0.001 | [2] 0.103 | [3] 0.024 | [4] 0.013 | [5] 0.059 | [6] 0.008 | [7] -0.065 | [8] 0.004 | [9] -0.02 | [10] -0.011 | [11] 0.002 | [12] -0.008 | [13] 0.002 | [14] -0.033 | [15] 0.003 | [16] 0.023 | [17] -0.014 | [18] -0.001 | [19] 0 | [20] -0.031

ERC1 (UniProt X6RLX0)
inactive: [1] -0.012 | [2] 0.015 | [3] 0.002 | [4] -0.029 | [5] 0.032 | [6] 0.021 | [7] -0.025 | [8] -0.023 | [9] 0.012 | [10] 0.014 | [11] 0.018 | [12] -0.027 | [13] -0.021 | [14] -0.034 | [15] -0.019 | [16] -0.013 | [17] -0.03 | [18] 0.01 | [19] -0.01 | [20] -0.038

ENO1 isoform 2 (UniProt P06733)
inactive: [1] -0.02 | [2] -0.039 | [3] -0.035 | [4] -0.021 | [5] -0.016 | [6] -0.003 | [7] -0.066 | [8] -0.033 | [9] 0.027 | [10] 0.015 | [11] -0.043 | [12] 0.008 | [13] 0.02 | [14] -0.07 | [15] 0.028 | [16] -0.009 | [17] -0.013 | [18] 0.023 | [19] -0.002 | [20] -0.015

ELP4 (UniProt Q96EB1)
inactive: [1] -0.019 | [2] -0.022 | [3] 0.022 | [4] 0.024 | [5] 0.019 | [6] 0.016 | [7] 0.006 | [8] -0.029 | [9] -0.022 | [10] 0.031 | [11] -0.002 | [12] 0.009 | [13] -0.013 | [14] -0.029 | [15] -0.023 | [16] 0.023 | [17] -0.012 | [18] 0.01 | [19] 0.003 | [20] -0.008

EIF3E (UniProt P60228)
inactive: [1] -0.018 | [2] 0.122 | [3] -0.065 | [4] 0.009 | [5] 0.039 | [6] -0.019 | [7] -0.057 | [8] 0 | [9] 0.022 | [10] -0.031 | [11] 0.039 | [12] 0.022 | [13] 0.034 | [14] 0.021 | [15] -0.022 | [16] -0.005 | [17] 0.019 | [18] -0.028 | [19] 0.03 | [20] 0.028

EIF2S3 (UniProt P41091)
inactive: [1] 0.003 | [2] 0.031 | [3] -0.002 | [4] -0.042 | [5] -0.012 | [6] 0.005 | [7] 0.027 | [8] -0.002 | [9] 0.032 | [10] -0.004 | [11] -0.013 | [12] -0.027 | [13] -0.006 | [14] -0.003 | [15] -0.001 | [16] -0.015 | [17] -0.009 | [18] -0.024 | [19] -0.018 | [20] 0.01

ELAVL1 isoform 2 (UniProt Q15717)
inactive: [1] 0.047 | [2] 0.008 | [3] 0.019 | [4] 0.025 | [5] -0.017 | [6] 0.001 | [7] -0.069 | [8] -0.027 | [9] 0.036 | [10] -0.051 | [11] 0.042 | [12] -0.034 | [13] -0.016 | [14] 0.039 | [15] -0.009 | [16] -0.02 | [17] -0.026 | [18] -0.042 | [19] 0.028 | [20] 0.007

EIF4ENIF1 isoform 3 (UniProt Q9NRA8)
inactive: [1] 0.013 | [2] -0.149 | [3] -0.034 | [4] 0.021 | [5] -0.059 | [6] 0.03 | [7] -0.061 | [8] -0.022 | [9] 0.139 | [10] -0.012 | [11] -0.044 | [12] -0.033 | [13] 0.015 | [14] -0.045 | [15] 0.053 | [16] 0.122 | [17] -0.049 | [18] 0.064 | [19] -0.008 | [20] -0.048

ENOSF1 (UniProt Q7L5Y1)
inactive: [1] -0.022 | [2] 0.021 | [3] 0.029 | [4] 0.032 | [5] 0.019 | [6] -0.024 | [7] -0.032 | [8] -0.002 | [9] 0 | [10] -0.004 | [11] 0.011 | [12] 0.039 | [13] 0 | [14] 0.003 | [15] -0.039 | [16] -0.059 | [17] -0.044 | [18] 0.015 | [19] 0 | [20] 0.026

ELP6 (UniProt Q0PNE2)
inactive: [1] 0.015 | [2] -0.093 | [3] -0.002 | [4] -0.024 | [5] -0.011 | [6] 0.005 | [7] -0.008 | [8] 0.005 | [9] 0.034 | [10] 0.019 | [11] 0.014 | [12] -0.018 | [13] -0.016 | [14] -0.019 | [15] 0.001 | [16] 0.002 | [17] -0.01 | [18] 0.003 | [19] -0.022 | [20] -0.045

EMC7 (UniProt Q9NPA0)
inactive: [1] 0.023 | [2] -0.011 | [3] -0.009 | [4] -0.02 | [5] -0.044 | [6] -0.011 | [7] -0.052 | [8] -0.002 | [9] 0.011 | [10] 0.02 | [11] -0.033 | [12] -0.001 | [13] 0.008 | [14] -0.003 | [15] 0.013 | [16] -0.012 | [17] 0.024 | [18] 0.015 | [19] -0.006 | [20] -0.032

Reprinted from the entries so far (4 entries):
EIF2S3 (UniProt P41091)
inactive: [1] 0.003 | [2] 0.031 | [3] -0.002 | [4] -0.042 | [5] -0.012 | [6] 0.005 | [7] 0.027 | [8] -0.002 | [9] 0.032 | [10] -0.004 | [11] -0.013 | [12] -0.027 | [13] -0.006 | [14] -0.003 | [15] -0.001 | [16] -0.015 | [17] -0.009 | [18] -0.024 | [19] -0.018 | [20] 0.01

ELAVL1 isoform 2 (UniProt Q15717)
inactive: [1] 0.047 | [2] 0.008 | [3] 0.019 | [4] 0.025 | [5] -0.017 | [6] 0.001 | [7] -0.069 | [8] -0.027 | [9] 0.036 | [10] -0.051 | [11] 0.042 | [12] -0.034 | [13] -0.016 | [14] 0.039 | [15] -0.009 | [16] -0.02 | [17] -0.026 | [18] -0.042 | [19] 0.028 | [20] 0.007

EIF4ENIF1 isoform 3 (UniProt Q9NRA8)
inactive: [1] 0.013 | [2] -0.149 | [3] -0.034 | [4] 0.021 | [5] -0.059 | [6] 0.03 | [7] -0.061 | [8] -0.022 | [9] 0.139 | [10] -0.012 | [11] -0.044 | [12] -0.033 | [13] 0.015 | [14] -0.045 | [15] 0.053 | [16] 0.122 | [17] -0.049 | [18] 0.064 | [19] -0.008 | [20] -0.048

ENOSF1 (UniProt Q7L5Y1)
inactive: [1] -0.022 | [2] 0.021 | [3] 0.029 | [4] 0.032 | [5] 0.019 | [6] -0.024 | [7] -0.032 | [8] -0.002 | [9] 0 | [10] -0.004 | [11] 0.011 | [12] 0.039 | [13] 0 | [14] 0.003 | [15] -0.039 | [16] -0.059 | [17] -0.044 | [18] 0.015 | [19] 0 | [20] 0.026

Going on with the list:

EIF2S2 (UniProt P20042)
inactive: [1] -0.021 | [2] -0.048 | [3] 0.019 | [4] -0.003 | [5] -0.019 | [6] 0.015 | [7] -0.027 | [8] 0.007 | [9] 0.019 | [10] -0.008 | [11] -0.023 | [12] -0.011 | [13] -0.018 | [14] -0.015 | [15] 0.007 | [16] -0.012 | [17] -0.011 | [18] 0.007 | [19] 0.01 | [20] 0.001
